Laboratory results published in publication PMC6322583.
No constants are given. Whether binding was seen depends on the method and setting. In cells and extracts the contact can be indirect. Sequences can lack the tags named with a protein.

Molecular target: T1, YN–TRM1 (TON1 RECRUITMENT MOTIF1 fused to the N-terminal half of YFP) (UniProt Q9S823)
T1 sequence: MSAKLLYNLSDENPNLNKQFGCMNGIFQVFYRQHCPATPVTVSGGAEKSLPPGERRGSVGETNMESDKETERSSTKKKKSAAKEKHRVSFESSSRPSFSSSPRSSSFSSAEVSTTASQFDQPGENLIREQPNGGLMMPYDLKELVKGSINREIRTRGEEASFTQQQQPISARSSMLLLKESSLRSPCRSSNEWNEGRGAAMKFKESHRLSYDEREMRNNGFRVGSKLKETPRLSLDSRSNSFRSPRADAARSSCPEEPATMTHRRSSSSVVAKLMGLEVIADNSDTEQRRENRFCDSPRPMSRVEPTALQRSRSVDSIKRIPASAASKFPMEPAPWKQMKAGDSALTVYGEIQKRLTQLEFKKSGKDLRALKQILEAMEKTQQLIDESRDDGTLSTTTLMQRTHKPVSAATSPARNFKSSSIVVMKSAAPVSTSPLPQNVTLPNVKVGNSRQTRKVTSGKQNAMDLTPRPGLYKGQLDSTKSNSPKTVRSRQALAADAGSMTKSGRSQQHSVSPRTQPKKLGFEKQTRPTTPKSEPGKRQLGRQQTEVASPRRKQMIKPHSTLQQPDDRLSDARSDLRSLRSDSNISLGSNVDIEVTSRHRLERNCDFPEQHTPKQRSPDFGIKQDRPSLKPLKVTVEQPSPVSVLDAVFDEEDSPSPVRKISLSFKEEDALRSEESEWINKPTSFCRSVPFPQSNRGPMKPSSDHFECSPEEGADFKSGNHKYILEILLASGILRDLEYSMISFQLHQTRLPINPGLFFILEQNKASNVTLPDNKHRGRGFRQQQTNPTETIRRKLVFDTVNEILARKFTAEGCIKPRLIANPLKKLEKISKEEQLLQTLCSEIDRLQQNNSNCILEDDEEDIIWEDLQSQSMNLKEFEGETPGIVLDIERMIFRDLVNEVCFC
Test: split reporter; BiFC: YN and YC fusions transiently co-expressed in N. benthamiana leaves by Agrobacterium infiltration; YFP fluorescence by confocal imaging with identical laser settings

- binding: no binding
Substance: YC–CaM2 (CaM2 fused to the C-terminal half of YFP) (from UniProt P0DH97 1-149)
